The supplement of paper PMC10849652
Some of the results follow.

The chains behind the UniProt entries cited, without tags or fusion partners. Where a name states a change or a piece, a line headed by the entry shows the natural chain unless it says otherwise.
UniProt P0CG38, whole entry, looked up: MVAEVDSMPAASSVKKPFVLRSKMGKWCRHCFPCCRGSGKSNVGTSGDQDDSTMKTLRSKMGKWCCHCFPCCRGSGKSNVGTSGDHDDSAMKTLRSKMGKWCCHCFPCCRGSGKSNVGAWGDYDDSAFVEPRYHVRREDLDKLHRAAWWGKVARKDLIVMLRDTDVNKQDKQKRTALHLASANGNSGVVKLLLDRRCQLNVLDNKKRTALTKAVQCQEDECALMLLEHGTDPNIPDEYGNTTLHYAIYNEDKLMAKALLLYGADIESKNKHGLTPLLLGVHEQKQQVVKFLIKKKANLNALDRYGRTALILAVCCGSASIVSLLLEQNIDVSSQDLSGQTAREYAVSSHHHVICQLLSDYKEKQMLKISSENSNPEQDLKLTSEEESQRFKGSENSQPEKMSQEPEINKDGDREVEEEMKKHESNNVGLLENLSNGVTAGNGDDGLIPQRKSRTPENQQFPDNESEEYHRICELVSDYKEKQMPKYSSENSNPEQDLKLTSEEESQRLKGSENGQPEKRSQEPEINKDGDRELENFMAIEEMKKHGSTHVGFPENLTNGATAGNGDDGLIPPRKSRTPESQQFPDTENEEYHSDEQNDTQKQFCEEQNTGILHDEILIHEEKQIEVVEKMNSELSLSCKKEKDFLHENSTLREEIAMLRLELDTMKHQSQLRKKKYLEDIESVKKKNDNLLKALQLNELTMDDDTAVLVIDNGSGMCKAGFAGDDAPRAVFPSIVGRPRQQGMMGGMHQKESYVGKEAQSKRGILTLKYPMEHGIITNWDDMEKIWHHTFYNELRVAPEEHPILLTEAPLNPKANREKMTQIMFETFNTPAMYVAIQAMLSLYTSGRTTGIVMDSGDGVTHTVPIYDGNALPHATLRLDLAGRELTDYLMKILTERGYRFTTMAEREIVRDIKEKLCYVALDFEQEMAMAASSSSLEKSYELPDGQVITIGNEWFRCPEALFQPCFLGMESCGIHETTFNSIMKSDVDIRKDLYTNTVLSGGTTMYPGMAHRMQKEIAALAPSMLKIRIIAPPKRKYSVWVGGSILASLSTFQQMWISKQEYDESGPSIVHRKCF
UniProt Q9P215: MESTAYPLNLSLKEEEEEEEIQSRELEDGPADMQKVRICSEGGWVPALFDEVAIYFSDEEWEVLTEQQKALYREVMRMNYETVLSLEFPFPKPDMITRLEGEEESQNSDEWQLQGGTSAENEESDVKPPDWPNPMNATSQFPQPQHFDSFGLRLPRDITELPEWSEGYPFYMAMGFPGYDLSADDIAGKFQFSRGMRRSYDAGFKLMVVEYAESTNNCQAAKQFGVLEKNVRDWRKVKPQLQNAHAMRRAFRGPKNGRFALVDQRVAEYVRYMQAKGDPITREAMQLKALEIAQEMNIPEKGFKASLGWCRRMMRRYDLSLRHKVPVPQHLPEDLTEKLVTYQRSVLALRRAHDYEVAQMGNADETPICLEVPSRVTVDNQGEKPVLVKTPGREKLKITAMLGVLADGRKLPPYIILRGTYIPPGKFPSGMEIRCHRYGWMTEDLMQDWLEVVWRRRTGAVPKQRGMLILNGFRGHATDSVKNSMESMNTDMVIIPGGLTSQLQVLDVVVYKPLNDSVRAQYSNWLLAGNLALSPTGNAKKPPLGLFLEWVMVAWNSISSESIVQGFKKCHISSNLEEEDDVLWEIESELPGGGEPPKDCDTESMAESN
UniProt P00747, whole entry, looked up: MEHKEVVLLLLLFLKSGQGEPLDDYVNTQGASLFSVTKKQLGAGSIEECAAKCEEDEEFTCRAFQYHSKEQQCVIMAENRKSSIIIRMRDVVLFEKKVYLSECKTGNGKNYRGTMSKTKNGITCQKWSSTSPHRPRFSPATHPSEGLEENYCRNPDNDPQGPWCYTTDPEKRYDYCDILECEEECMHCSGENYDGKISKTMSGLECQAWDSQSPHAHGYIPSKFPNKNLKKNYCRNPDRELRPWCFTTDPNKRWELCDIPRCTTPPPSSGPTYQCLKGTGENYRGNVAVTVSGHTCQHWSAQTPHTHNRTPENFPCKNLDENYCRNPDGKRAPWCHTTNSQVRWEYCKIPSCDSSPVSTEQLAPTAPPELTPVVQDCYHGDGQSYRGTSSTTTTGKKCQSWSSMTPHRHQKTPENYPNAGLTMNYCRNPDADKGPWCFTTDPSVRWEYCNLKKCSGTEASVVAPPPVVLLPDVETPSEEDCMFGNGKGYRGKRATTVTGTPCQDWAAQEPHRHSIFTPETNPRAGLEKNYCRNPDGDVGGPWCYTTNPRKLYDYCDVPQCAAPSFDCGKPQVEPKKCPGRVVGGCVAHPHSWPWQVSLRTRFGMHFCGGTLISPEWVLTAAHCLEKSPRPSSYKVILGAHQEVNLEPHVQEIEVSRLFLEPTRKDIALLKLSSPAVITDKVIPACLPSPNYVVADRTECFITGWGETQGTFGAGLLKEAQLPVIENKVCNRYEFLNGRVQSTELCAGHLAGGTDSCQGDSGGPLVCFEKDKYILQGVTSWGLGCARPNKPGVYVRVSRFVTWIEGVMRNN
UniProt Q9H307: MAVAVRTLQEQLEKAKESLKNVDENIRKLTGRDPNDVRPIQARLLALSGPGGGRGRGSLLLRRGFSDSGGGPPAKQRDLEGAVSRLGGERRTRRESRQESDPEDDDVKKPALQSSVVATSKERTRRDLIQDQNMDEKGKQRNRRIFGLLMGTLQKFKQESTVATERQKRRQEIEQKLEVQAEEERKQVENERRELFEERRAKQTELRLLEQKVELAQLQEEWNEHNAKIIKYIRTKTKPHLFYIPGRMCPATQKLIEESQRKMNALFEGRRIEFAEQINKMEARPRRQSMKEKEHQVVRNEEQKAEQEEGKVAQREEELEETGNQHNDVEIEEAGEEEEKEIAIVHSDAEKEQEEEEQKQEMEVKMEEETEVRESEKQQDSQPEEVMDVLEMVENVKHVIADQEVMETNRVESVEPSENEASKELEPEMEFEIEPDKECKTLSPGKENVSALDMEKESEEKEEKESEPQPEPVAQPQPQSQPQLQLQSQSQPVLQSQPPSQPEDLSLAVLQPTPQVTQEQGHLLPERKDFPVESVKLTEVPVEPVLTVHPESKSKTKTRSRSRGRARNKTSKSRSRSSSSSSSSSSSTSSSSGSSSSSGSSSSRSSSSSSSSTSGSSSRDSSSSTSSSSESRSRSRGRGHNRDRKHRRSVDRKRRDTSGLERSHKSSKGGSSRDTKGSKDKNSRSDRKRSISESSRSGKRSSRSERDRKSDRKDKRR
UniProt Q9Y2Y1: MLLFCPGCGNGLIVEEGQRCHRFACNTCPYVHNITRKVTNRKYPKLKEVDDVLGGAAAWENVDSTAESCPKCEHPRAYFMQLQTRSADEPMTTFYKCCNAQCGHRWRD
UniProt Q8TD55: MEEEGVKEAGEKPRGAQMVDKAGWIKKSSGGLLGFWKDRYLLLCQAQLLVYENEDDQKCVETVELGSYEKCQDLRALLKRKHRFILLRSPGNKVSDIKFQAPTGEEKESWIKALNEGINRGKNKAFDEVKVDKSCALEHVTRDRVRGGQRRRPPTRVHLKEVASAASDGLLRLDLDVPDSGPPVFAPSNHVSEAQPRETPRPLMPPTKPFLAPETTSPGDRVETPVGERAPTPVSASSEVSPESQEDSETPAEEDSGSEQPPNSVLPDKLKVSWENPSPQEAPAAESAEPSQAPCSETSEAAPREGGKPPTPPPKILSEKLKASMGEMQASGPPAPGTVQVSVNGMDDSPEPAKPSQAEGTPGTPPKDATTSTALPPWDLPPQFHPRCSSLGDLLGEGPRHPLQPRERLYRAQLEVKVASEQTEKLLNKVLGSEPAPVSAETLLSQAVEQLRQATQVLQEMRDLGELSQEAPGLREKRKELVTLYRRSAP
UniProt Q9H2U2: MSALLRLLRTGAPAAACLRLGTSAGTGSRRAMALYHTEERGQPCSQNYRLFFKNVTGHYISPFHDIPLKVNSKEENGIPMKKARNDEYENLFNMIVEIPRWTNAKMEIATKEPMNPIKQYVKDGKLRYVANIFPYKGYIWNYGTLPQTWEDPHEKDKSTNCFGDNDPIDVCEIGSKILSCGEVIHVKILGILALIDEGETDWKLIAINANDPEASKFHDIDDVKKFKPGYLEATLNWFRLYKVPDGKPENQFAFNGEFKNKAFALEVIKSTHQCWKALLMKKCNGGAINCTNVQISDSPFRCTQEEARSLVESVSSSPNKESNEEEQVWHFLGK
UniProt Q10713: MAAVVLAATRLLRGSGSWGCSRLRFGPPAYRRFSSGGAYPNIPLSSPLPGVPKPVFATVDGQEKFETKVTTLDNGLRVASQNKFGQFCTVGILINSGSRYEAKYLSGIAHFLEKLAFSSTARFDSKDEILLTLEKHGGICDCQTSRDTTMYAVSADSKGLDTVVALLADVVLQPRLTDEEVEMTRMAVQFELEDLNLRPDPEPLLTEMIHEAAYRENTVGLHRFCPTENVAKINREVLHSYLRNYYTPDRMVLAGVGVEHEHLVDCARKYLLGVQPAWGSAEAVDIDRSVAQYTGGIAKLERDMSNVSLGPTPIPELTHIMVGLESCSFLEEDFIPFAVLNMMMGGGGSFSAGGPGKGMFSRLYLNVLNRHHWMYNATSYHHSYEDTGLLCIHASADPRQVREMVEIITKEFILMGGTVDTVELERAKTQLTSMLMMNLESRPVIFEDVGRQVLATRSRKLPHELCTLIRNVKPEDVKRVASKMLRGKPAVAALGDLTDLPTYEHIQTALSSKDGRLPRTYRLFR
UniProt Q6P1K2: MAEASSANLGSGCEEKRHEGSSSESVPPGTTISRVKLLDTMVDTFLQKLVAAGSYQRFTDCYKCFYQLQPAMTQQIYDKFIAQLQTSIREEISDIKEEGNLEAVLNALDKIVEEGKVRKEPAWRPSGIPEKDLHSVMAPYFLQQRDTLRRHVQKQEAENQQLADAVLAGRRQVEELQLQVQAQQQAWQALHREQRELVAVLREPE
UniProt Q9UNP9: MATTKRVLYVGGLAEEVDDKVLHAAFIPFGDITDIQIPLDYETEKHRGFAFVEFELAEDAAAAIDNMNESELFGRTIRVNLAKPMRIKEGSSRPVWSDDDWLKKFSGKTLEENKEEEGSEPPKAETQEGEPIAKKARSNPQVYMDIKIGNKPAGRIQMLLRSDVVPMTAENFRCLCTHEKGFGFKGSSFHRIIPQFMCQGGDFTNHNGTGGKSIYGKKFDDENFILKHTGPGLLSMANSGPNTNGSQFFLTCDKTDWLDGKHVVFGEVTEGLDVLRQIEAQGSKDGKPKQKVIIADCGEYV
UniProt Q15126: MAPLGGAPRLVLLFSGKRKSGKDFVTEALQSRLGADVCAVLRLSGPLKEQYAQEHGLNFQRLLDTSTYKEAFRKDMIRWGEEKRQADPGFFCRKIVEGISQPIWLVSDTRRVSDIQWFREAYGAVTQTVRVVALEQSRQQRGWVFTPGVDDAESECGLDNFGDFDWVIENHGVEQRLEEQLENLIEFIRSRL
UniProt Q6UW63: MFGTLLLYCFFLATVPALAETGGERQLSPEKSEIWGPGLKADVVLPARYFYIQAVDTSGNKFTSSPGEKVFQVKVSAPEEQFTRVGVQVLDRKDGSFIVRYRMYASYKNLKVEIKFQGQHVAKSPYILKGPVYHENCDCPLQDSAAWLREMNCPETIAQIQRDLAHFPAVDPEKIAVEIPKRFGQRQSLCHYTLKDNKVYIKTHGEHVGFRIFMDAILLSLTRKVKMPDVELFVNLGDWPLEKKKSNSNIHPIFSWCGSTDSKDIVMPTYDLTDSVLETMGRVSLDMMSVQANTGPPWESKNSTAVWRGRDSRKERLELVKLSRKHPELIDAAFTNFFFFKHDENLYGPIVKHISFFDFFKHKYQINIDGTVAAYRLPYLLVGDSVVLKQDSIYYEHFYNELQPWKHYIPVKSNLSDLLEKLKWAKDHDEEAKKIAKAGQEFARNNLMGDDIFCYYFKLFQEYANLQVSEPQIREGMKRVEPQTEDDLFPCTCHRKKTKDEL
UniProt P0DPB6, whole entry, looked up: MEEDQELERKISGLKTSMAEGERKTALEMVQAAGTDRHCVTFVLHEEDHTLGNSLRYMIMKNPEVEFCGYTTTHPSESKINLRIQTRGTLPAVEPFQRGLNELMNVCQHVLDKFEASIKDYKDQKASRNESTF

Tests used:
Test in all cases: log2 fold change, soluble protein after heating vs DMSO (PISA); higher = thermal stabilisation; K562 lysate, 10 uM; active = over 0.2 and 3.5 SD of the protein, either way, in both replicates (recomputed)
[1] = compound: CCCS(=O)(=O)Nc1ccc(F)c(C(=O)c2c[nH]c3ncc(-c4ccc(Cl)cc4)cc23)c1F [vemurafenib]
Procedure, shortened: (§1)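 Following dounce homogenisation of K562 pellets in PBS pH 7.4 with 1 mM MgCl2, crude extract at 1 mg/mL protein was incubated for 30 min with 10 μM compound. Aliquots were then heated for 3 min over 48°C-58°C and pooled, NP-40 was added to 0.5% at 4°C, and soluble protein was recovered as the supernatant at 21,000xg for 90 min. Channel-sum-equalised TMTpro 16plex LC-MS/MS quantified this protein. Each value, from duplicates, is a log-two fold change in thermal stability relative to solvent controls.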

[2] = compound: CCCS(=O)(=O)Nc1ccc(F)c(C(=O)c2c[nH]c3ncc(Cl)cc23)c1F
Procedure, shortened: as §1

[3] = compound: CCN(CCCOc1ccc2c(Nc3cc(CC(=O)Nc4cccc(F)c4)[nH]n3)ncnc2c1)CCOP(=O)(O)O [barasertib]
Procedure, shortened: as §1

[4] = compound: CC[C@@H]1C(=O)N(C)c2cnc(Nc3ccc(C(=O)NC4CCN(C)CC4)cc3OC)nc2N1C1CCCC1
Procedure, shortened: as §1

[5] = compound: CC[C@@H]1C(=O)N(C)c2cnc(Nc3ccc(C(=O)N[C@H]4CC[C@H](N5CCN(CC6CC6)CC5)CC4)cc3OC)nc2N1C(C)C [volasertib]
Procedure, shortened: as §1

[6] = compound: CCn1c(C(=O)N(C2CC2)C2CC2)cc2c3c(ncn3C)c(Nc3cc(C)n(C)n3)nc21
Procedure, shortened: as §1

[7] = compound: CCn1cc(-c2ccnc3[nH]c(-c4cccc(CN(C)C)c4)cc23)c(-c2ccc(NC(=O)N(C)C)cc2)n1
Procedure, shortened: as §1

[8] = compound: CN1CCC(CNc2ccc3ncc(-c4cccc(OC(F)(F)F)c4)n3n2)CC1
Procedure, shortened: as §1

[9] = compound: CN1CCN(CCOc2cc(OC3CCOCC3)c3c(Nc4c(Cl)ccc5c4OCO5)ncnc3c2)CC1 [saracatinib]
Procedure, shortened: as §1

[10] = compound: CN1CCN(c2nc(C3=C(c4c[nH]c5ccccc45)C(=O)NC3=O)c3ccccc3n2)CC1 [sotrastaurin]
Procedure, shortened: as §1

Measured: log2 fold change

POTEI (UniProt P0CG38)
inactive: [1] -0.004 | [2] 0.033 | [3] 0.003 | [4] -0.003 | [5] -0.076 | [6] -0.023 | [7] -0.03 | [8] -0.02 | [9] 0.021 | [10] 0.036

POGK (UniProt Q9P215)
active: [7] -0.397
inactive: [1] -0.035 | [2] 0.114 | [3] 0.011 | [4] -0.005 | [5] 0.033 | [6] -0.027 | [8] 0.034 | [9] 0.017 | [10] 0.013

PLG (UniProt P00747)
inactive: [1] 0.286 | [2] 0.06 | [3] 0.182 | [4] 0.068 | [5] 0.002 | [6] 0.023 | [7] -0.133 | [8] 0.07 | [9] -0.155 | [10] 0.024

POLR2C (UniProt P19387)
inactive: [1] 0.001 | [2] -0.007 | [3] 0.022 | [4] -0.027 | [5] -0.039 | [6] 0.009 | [7] -0.048 | [8] 0.062 | [9] -0.008 | [10] -0.01

PNN (UniProt Q9H307)
inactive: [1] -0.052 | [2] -0.034 | [3] -0.006 | [4] 0.037 | [5] 0.056 | [6] 0.001 | [7] 0.036 | [8] 0.072 | [9] -0.039 | [10] -0.015

POLR3K (UniProt Q9Y2Y1)
inactive: [1] 0.011 | [2] 0.004 | [3] 0.045 | [4] 0.048 | [5] -0.01 | [6] 0.001 | [7] -0.059 | [8] 0.066 | [9] -0.152 | [10] -0.004

PLEKHO2 (UniProt Q8TD55)
inactive: [1] 0.034 | [2] 0.247 | [3] 0.161 | [4] 0.068 | [5] 0.151 | [6] 0.126 | [7] 0.136 | [8] 0.016 | [9] 0.278 | [10] -0.054

PPA2 (UniProt Q9H2U2)
inactive: [1] 0.016 | [2] 0.027 | [3] -0.017 | [4] 0.004 | [5] -0.014 | [6] -0.016 | [7] -0.042 | [8] 0.032 | [9] 0 | [10] -0.014

PMPCA (UniProt Q10713)
inactive: [1] 0.047 | [2] 0.037 | [3] -0.014 | [4] -0.039 | [5] -0.031 | [6] -0.025 | [7] -0.017 | [8] 0.233 | [9] -0.024 | [10] 0.006

PMF1 (UniProt Q6P1K2)
inactive: [1] 0.017 | [2] 0.014 | [3] 0.075 | [4] 0.02 | [5] 0.038 | [6] -0.034 | [7] 0.121 | [8] -0.047 | [9] 0.028 | [10] -0.017

PPIE (UniProt Q9UNP9)
active: [7] -0.25
inactive: [1] 0.026 | [2] -0.043 | [3] -0.042 | [4] 0.044 | [5] 0.018 | [6] -0.003 | [8] 0.143 | [9] -0.01 | [10] 0.067

2 entries drawn at random from the list so far:
PMPCA (UniProt Q10713)
inactive: [1] 0.047 | [2] 0.037 | [3] -0.014 | [4] -0.039 | [5] -0.031 | [6] -0.025 | [7] -0.017 | [8] 0.233 | [9] -0.024 | [10] 0.006

POGK (UniProt Q9P215)
active: [7] -0.397
inactive: [1] -0.035 | [2] 0.114 | [3] 0.011 | [4] -0.005 | [5] 0.033 | [6] -0.027 | [8] 0.034 | [9] 0.017 | [10] 0.013

Continuation:

PMVK (UniProt Q15126)
inactive: [1] 0.032 | [2] 0.013 | [3] 0.035 | [4] -0.163 | [5] 0.016 | [6] -0.004 | [7] -0.002 | [8] 0.03 | [9] 0.01 | [10] 0.001

POGLUT2 (UniProt Q6UW63)
inactive: [1] 0.074 | [2] 0.007 | [3] 0.043 | [4] -0.067 | [5] 0.011 | [6] -0.05 | [7] -0.068 | [8] 0.046 | [9] 0.009 | [10] 0.012

POLR1D (UniProt P0DPB6)
inactive: [1] 0.01 | [2] -0.012 | [3] 0.124 | [4] 0.028 | [5] 0.034 | [6] -0.048 | [7] -0.092 | [8] 0.041 | [9] 0.009 | [10] 0.086
